{"source": "patent US20240299470A1", "about": "“METHODS OF PROBIOTIC TREATMENT TO IMPROVE HUMAN HEALTH” (SEED HEALTH INC., priority 2021, published 2024)", "origin": "cited, not measured here", "system": "hapten-sensitized mice", "conditions": "subcutaneously injected or topically applied", "note": "For at least one compound, name, drawing or mass did not settle the structure.", "data": [{"smiles": "CCCC(=O)O", "note": "[butyrate]", "values": [{"measurement": "contact hypersensitivity reaction", "value": "reduces the contact hypersensitivity reaction"}]}]}
